Our source for the binding values is patent US20250282861A1 (SYDDANSK UNIVERSITET, published 2025).

Results are given in words; binding and its absence hold for the method and conditions named. Some binding calls cover weakened binding; strength is not graded here.

This assay deals with T1, rat MFAP4 (rat) (UniProt Q497C9).
T1 sequence: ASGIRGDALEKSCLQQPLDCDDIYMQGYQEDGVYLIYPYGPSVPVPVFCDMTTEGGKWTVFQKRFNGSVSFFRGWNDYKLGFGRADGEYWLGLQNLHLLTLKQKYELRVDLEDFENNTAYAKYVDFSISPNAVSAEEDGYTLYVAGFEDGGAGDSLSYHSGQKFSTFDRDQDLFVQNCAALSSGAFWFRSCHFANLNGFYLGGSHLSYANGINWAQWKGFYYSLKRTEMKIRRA
Briefly: sandwich ELISA, biotinylated detection antibody at 0.5 µg/ml.

B1: HG Hyb 7-14 murine monoclonal antibody raised against human recombinant MFAP4 (antibody, mouse IgG1, V domains shown)
VH: EVKVVESGGGLVQPGGSLRLSCATSGFTFSDFYMEWVRQPPGKRLEWIAASRNKANDYTTEYSASVKGRFIVSRDTSQSILYLQLNALRAEDTAIYYCARNYYDSSYWYFDVWGAGTTVTVSS
VL: DIVLTQSPSYLAASPGETITINCRASKSISKYLAWYQERPGKTNKLLIYSGSTLQSGIPSRFSGSGSGTDFTLTISSLEPEDFAMYYCQQHNEYPFTFGAGTKLELK
Turning to B1, the binding entry was “binds”.
